According to paper PMC4323032:
No constants are given. Whether binding was seen depends on the method and setting. In cells and extracts the contact can be indirect. Here binding means that the protein was enriched with, or labelled near, the bait; the list need not be complete.

By UniProt entry, the sequences of proteins in these tests, tags left out. Residues count along the entry.
UniProt Q6IFX2: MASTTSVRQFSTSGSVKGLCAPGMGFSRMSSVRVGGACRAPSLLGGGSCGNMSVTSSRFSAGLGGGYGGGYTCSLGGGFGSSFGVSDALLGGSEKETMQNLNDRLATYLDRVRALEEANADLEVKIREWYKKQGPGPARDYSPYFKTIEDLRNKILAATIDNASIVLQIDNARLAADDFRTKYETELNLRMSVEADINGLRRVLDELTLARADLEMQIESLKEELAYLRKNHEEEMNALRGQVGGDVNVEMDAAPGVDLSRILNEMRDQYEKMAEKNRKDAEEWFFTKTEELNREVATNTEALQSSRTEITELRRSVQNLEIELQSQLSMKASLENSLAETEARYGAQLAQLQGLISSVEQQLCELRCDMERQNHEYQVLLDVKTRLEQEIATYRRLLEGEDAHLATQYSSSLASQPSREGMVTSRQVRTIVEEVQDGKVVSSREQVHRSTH
UniProt P07724, residues 25-608: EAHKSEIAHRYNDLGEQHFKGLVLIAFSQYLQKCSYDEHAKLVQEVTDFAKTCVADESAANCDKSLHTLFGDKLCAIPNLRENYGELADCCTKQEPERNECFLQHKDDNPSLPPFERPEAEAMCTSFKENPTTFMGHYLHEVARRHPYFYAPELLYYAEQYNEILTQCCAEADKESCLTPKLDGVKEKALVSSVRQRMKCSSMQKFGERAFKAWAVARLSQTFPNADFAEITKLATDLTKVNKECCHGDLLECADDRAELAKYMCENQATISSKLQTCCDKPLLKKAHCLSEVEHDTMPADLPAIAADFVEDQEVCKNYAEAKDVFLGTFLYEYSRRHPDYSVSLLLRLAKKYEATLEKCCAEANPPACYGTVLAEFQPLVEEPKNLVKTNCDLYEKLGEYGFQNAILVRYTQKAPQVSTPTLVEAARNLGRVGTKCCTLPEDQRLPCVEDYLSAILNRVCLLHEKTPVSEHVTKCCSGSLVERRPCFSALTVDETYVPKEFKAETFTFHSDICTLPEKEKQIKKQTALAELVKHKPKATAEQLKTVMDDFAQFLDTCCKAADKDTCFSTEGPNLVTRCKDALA
UniProt Q99M73: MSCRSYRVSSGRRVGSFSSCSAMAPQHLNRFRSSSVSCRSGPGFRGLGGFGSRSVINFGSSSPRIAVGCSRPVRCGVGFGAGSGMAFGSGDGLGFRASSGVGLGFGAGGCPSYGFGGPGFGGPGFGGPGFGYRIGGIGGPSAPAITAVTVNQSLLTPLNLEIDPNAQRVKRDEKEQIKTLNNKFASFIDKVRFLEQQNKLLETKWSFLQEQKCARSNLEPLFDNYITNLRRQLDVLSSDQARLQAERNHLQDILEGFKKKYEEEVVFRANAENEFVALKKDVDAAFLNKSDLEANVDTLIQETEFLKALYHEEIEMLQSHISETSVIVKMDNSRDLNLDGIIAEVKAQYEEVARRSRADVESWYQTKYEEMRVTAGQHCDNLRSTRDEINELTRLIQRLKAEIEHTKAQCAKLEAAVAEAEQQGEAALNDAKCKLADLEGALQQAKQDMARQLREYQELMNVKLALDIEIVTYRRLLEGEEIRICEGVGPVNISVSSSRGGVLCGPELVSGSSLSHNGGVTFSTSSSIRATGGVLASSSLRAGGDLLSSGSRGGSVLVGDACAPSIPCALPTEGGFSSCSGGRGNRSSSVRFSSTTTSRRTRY
UniProt Q6IFZ9: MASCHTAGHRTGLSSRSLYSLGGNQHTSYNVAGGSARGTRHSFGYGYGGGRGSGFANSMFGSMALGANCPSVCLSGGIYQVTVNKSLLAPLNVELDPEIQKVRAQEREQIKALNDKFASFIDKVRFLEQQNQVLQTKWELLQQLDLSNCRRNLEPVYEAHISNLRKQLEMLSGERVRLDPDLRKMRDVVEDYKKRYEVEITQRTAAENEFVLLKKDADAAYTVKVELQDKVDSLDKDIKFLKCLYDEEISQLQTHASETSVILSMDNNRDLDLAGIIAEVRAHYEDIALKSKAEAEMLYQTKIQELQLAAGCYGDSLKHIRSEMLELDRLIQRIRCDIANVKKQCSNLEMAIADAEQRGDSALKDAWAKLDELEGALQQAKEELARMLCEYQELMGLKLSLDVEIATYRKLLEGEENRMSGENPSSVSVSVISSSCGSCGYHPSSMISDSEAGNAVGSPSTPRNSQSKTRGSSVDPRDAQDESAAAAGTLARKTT
UniProt Q3UV17: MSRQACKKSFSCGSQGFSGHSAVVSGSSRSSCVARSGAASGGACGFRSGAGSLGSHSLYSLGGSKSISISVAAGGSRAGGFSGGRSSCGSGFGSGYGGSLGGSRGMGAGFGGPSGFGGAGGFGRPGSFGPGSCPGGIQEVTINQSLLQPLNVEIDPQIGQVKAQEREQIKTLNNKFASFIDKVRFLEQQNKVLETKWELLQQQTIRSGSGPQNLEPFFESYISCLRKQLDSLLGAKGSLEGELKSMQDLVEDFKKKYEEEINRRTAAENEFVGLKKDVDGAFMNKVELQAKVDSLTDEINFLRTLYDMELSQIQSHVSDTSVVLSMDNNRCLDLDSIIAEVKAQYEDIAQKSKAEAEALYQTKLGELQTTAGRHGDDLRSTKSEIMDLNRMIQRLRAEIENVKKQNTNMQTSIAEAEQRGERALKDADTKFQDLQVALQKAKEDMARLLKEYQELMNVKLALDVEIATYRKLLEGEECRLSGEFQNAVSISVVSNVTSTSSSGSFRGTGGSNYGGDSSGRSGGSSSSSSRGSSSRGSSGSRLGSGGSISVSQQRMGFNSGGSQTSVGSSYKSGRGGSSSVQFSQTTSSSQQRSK
UniProt Q6IFZ6: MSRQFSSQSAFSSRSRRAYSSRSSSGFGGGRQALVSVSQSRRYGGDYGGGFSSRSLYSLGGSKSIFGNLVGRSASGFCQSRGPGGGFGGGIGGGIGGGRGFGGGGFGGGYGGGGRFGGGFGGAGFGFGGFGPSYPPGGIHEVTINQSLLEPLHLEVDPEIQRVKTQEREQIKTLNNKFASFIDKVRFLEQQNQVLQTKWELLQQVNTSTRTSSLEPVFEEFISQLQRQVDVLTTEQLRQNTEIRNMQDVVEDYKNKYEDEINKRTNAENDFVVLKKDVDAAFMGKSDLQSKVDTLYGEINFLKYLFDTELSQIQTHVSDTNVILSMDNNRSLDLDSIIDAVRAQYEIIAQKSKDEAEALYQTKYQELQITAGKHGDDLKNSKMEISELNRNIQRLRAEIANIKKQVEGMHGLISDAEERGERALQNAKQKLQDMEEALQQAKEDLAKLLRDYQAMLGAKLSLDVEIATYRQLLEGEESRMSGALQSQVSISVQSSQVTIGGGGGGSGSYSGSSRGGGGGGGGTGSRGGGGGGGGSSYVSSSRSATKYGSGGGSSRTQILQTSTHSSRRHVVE
UniProt Q9QWL7: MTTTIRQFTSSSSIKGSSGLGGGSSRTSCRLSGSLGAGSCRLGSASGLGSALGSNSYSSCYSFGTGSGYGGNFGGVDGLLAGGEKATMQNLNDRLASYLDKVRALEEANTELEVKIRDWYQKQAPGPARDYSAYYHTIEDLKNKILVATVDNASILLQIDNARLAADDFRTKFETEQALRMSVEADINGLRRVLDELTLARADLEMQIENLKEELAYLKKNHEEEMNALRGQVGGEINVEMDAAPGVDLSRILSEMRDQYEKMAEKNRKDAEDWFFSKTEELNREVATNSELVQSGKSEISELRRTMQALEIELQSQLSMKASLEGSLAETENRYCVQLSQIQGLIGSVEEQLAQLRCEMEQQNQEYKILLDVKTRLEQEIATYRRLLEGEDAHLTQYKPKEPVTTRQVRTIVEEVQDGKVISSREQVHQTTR
UniProt Q61781: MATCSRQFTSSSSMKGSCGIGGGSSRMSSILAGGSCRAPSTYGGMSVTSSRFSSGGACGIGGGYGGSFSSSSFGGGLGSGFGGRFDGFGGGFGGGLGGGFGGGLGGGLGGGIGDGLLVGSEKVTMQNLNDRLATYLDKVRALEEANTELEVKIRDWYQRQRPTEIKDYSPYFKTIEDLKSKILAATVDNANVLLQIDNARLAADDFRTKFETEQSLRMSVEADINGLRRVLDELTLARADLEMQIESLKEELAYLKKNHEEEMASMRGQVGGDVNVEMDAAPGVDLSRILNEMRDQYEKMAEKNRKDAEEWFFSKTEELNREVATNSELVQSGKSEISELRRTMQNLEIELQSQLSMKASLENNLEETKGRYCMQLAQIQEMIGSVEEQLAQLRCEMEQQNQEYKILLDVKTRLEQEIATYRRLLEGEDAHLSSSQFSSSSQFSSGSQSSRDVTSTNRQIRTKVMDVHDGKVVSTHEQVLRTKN
UniProt Q6IME9: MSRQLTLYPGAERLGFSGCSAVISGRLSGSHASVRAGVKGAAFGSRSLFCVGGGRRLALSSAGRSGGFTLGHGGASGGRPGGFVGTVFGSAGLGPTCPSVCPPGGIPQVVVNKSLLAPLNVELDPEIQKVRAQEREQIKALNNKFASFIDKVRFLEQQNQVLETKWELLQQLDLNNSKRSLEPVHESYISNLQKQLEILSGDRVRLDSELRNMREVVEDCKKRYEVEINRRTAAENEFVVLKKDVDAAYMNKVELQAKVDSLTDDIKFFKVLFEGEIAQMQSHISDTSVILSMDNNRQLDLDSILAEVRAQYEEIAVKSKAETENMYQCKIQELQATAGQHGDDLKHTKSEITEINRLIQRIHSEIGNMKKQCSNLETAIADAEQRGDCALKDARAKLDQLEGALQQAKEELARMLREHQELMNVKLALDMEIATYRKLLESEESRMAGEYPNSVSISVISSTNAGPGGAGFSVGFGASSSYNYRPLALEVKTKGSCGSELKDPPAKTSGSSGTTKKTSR

target: T1, Peroxiredoxin V (mouse (endogenous in kidney)) (UniProt P99029); experiment: affinity purification with mass spectrometry; 500 μg total protein of normoxic or hypoxic (8% O2, 4 h) mouse kidney, anti-Prdx V antibody at 4°C overnight, protein G agarose; gel-assisted digestion, nano-UPLC-MS^E; three independent experiments
T1 sequence: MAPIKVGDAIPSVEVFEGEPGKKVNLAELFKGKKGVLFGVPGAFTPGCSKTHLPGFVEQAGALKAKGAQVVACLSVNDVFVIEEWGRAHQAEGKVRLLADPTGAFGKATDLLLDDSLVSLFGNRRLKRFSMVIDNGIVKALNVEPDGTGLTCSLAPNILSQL

binding, binds:
Keratin Kb40 (mouse (endogenous in kidney))
Keratin type I cytoskeletal 42 (from UniProt Q6IFX2 1-452)
Serum albumin (from UniProt P07724 25-608)
Keratin type II cuticular Hb4 (from UniProt Q99M73 1-603)
Keratin type II cytoskeletal 74 (from UniProt Q6IFZ9 1-495)
Keratin type II cytoskeletal 2, oral (from UniProt Q3UV17 1-594)
Keratin type II cytoskeletal 1b (from UniProt Q6IFZ6 1-572)
Keratin type I cytoskeletal 17 (from UniProt Q9QWL7 1-433)
Keratin type I cytoskeletal 14 (from UniProt Q61781 1-484)
Keratin type II cytoskeletal 72 (from UniProt Q6IME9 1-520)
